PubChem BioAssay AID504793 – Drosophila RNAi Screening Center – 2011
The deposit covers about 23,000 reagents; below is a random part of those that have a named target and a result. In the full data, 62 (0.27%) are marked active. 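Calls come from follow-up tests whose scores are not deposited, so confirmed genes may have low counts here; counts are not normalised per plate.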 Raw values vary from plate to plate and are shown uncorrected. A number with no mark means an inactive call. Names joined by + are all predicted targets of the reagent.

- Screen: 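Whole-genome screen for parts of the DNA damage checkpoint at G2/M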 (primary screen)
- Cell system: Drosophila S2R+ cells
- Reagents: long dsRNA against Drosophila genes, about 0.25 µg dsRNA per well
- Duration: 4 days of dsRNA, then 4 hours of drug before read-out
- Challenge: doxorubicin 0.5 µM for 4 hours to cause double-strand breaks, in cells also given a low, harmless dose of dsRNA against nbs to sensitise the assay
- Detection: 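Mitotic index as the number of phospho-histone H3-positive cells in each well following doxorubicin, given as raw counts without normalisation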
- Direction: mitotic cells: higher = more cells in mitosis, weaker G2 arrest
- Call rule: 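Genes are called active only when high mitotic counts were reproduced with independent dsRNAs and mitosis was checked for delay without damage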
- Meaning of the calls: active = confirmed in follow-up tests; inactive = not confirmed

gene,amplicon,"mitotic cells, replicate 1"
CG3626,DRSC18318,9
CG3626,DRSC26443,14
Lsd-1,DRSC14236,5
Agpat4,DRSC10446,2
Agpat4,DRSC26102,7
Cdk8,DRSC11113,38 (active)
Cdk8,DRSC28684,24 (active)
CG4815,DRSC15653,14
CG31457,DRSC22935,16
CG31457,DRSC29229,4
CG13471,DRSC10015,8
prd1,DRSC15227,4
CG9410 + CG15908,DRSC04976,3
CG9410 + CG15908,DRSC05001,9
CG9410 + CG15908,DRSC25956,4
Elp3,DRSC00448,5
CG13309,DRSC09980,8
CG10492,DRSC24982,6
Gagr,DRSC10441,9
CG30098,DRSC05605,6
CG30098,DRSC25946,7
mtgo,DRSC02769,5
mtgo,DRSC21392,11
mtgo,DRSC21743,11
mtgo,DRSC27702,4
Diap1,DRSC11404,7
Tsf1,DRSC20296,12
Tsf1,DRSC28246,1
CG11162,DRSC19391,12
CG11162,DRSC22538,12
lectin-37Db,DRSC03279,4
GlcT,DRSC04525,8
GlcT,DRSC27991,4
Spase25,DRSC19776,9
CG7778,DRSC03067,5
CG7778,DRSC27313,5
DptA,DRSC07404,3
elg1,DRSC10229,7
elg1,DRSC27844,6
CG11815,DRSC08209,11
CG11815,DRSC27752,7
drn,DRSC15147,6
CG32483,DRSC07902,12
CG16926,DRSC06637,9
Dcp-1,DRSC04609,2
CG31275,DRSC16919,3
Mulk,DRSC02658,3
mh,DRSC20168,7
Fmo-1,DRSC04328,5
Fmo-1,DRSC29306,1
CG15393 (retired record),DRSC00407,12
CG15393 (retired record),DRSC27448,7
Tsp26A,DRSC03135,5
Act79B,DRSC11604,2
Act79B,DRSC25023,6
CG12432 (retired record),DRSC19455,10
CG12432 (retired record),DRSC25232,8
CG7432,DRSC16243,16
Ccdc85,DRSC23173,2
Vti1a,DRSC08563,4
Pdh,DRSC11249,8
Pdh,DRSC26995,6
CG5823,DRSC15881,6
SdhCL,DRSC16078,2
DAT,DRSC07394,4
Muc26B,DRSC02322,4
Muc26B,DRSC28140,4
Spt7,DRSC19997,5
Spt7,DRSC24902,3
CG8654,DRSC07231,7
Synj,DRSC04526,4
CG31751,DRSC02464,6
CG31751,DRSC02465,6
colt,DRSC00808,6
colt,DRSC29025,5
CG15818,DRSC02505,2
CG15818,DRSC28515,3
otu,DRSC18811,18
otu,DRSC27953,6
FoxK,DRSC24971,14
CG14143,DRSC10146,4
CG14143,DRSC26503,9
CG9945,DRSC07347,7
CG9945,DRSC28885,6
CG5521,DRSC15828,10
CG5521,DRSC30087,3
CG11369,DRSC17779,11
CG6429,DRSC06986,8
Alg14,DRSC19983,5
side-VII,DRSC14578,11
Sirt2,DRSC15714,10
Sirt2,DRSC26964,3
CG31496,DRSC12547,5
CG31496,DRSC27899,6
mRpL3,DRSC20100,7
CG5191,DRSC15733,8
CG5191,DRSC15734,11
CG5191,DRSC21559,7
CG5191,DRSC27689,1
PCNA,DRSC07653,9
CG4953,DRSC02792,9
CG5292,DRSC15763,4
CG5292,DRSC26304,3
cold,DRSC00538,5
CG12590,DRSC12216,2
f,DRSC19174,2
f,DRSC19516,7
f,DRSC20331,9
f,DRSC25251,8
f,DRSC28735,5

In a second layout: results already given
gene | amplicon | mitotic cells, replicate 1
CG15393 (retired record) | DRSC00407 | 12
CG15393 (retired record) | DRSC27448 | 7
Tsp26A | DRSC03135 | 5
Act79B | DRSC11604 | 2
Act79B | DRSC25023 | 6
CG12432 (retired record) | DRSC19455 | 10
CG12432 (retired record) | DRSC25232 | 8
CG7432 | DRSC16243 | 16
Ccdc85 | DRSC23173 | 2
Vti1a | DRSC08563 | 4
Pdh | DRSC11249 | 8
Pdh | DRSC26995 | 6
CG5823 | DRSC15881 | 6
SdhCL | DRSC16078 | 2
DAT | DRSC07394 | 4
Muc26B | DRSC02322 | 4
Muc26B | DRSC28140 | 4
Spt7 | DRSC19997 | 5
